These are yes or no findings as the source states them, for the method shown. In cells and extracts the contact can be indirect. Here binding means that the protein was enriched with, or labelled near, the bait; the list need not be complete. Where a sequence is shown, tags or fusion partners need not be part of it.
Target: T1, Flag-DAB2IP (UniProt Q5VWQ8)
T1 sequence: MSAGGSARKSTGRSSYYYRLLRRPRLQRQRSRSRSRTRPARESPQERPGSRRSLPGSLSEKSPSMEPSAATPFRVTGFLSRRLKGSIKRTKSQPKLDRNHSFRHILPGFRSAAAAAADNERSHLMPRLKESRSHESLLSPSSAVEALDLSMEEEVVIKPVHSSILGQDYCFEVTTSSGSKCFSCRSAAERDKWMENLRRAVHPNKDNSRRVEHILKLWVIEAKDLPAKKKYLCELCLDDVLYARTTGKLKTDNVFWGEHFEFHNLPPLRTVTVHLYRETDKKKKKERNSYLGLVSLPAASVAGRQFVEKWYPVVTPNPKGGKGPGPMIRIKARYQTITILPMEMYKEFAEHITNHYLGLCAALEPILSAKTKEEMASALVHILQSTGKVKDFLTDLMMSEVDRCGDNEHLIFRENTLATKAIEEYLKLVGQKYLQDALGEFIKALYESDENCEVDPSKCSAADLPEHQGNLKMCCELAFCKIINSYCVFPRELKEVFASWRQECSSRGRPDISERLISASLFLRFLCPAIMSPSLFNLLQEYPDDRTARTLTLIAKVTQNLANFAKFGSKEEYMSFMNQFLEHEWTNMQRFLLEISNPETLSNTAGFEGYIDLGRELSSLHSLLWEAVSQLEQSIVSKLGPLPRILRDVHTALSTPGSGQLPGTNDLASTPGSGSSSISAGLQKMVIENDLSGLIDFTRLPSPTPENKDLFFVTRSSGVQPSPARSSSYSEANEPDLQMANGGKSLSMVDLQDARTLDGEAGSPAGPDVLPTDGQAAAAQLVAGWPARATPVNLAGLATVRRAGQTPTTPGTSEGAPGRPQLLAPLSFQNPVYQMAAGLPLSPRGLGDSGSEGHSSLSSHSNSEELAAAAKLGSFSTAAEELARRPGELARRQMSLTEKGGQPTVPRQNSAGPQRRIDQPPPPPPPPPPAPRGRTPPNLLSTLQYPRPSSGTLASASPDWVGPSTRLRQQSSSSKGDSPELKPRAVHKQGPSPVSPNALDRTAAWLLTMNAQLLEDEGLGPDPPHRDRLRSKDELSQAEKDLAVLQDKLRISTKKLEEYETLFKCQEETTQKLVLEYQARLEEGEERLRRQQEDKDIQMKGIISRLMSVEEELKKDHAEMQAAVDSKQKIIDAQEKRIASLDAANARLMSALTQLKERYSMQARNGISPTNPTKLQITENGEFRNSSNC
Assay: affinity purification with mass spectrometry; HEK 293 cells transfected with flag-tagged DAB2IP, lysed, immunoprecipitated with anti-flag antibody; bands cut from Coomassie-stained SDS-PAGE gel, Orbitrap Elite LC-MS/MS

The chains behind the UniProt entries cited, without tags or fusion partners.
UniProt P40763: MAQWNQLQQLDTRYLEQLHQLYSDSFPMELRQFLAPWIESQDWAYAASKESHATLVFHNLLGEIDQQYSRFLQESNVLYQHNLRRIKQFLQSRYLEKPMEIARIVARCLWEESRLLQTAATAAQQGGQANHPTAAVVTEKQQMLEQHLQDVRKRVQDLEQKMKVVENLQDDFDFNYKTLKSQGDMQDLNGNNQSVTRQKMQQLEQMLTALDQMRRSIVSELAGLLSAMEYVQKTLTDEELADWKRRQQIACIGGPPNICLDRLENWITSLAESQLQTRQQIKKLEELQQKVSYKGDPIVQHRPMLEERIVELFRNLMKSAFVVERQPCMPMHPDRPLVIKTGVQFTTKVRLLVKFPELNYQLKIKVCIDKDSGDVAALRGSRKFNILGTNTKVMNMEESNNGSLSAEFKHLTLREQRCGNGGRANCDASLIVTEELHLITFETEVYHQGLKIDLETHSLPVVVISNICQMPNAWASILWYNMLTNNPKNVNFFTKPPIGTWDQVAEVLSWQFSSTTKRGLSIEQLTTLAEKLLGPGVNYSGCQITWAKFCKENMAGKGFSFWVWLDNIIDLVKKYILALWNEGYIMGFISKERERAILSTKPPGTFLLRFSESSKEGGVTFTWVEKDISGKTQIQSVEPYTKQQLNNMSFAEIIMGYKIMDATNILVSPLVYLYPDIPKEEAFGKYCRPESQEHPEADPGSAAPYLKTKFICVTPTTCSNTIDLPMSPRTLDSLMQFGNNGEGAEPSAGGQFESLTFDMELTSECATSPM

binding: binds
Substance: signal transducer and activator of transcription 3 (from UniProt P40763 1-770)

From paper PMC5399177
